Library screening results

Protein sequences, listed by entry. Tags and fused reporters are not part of them.
UniProt E9BF75, entry or part of it: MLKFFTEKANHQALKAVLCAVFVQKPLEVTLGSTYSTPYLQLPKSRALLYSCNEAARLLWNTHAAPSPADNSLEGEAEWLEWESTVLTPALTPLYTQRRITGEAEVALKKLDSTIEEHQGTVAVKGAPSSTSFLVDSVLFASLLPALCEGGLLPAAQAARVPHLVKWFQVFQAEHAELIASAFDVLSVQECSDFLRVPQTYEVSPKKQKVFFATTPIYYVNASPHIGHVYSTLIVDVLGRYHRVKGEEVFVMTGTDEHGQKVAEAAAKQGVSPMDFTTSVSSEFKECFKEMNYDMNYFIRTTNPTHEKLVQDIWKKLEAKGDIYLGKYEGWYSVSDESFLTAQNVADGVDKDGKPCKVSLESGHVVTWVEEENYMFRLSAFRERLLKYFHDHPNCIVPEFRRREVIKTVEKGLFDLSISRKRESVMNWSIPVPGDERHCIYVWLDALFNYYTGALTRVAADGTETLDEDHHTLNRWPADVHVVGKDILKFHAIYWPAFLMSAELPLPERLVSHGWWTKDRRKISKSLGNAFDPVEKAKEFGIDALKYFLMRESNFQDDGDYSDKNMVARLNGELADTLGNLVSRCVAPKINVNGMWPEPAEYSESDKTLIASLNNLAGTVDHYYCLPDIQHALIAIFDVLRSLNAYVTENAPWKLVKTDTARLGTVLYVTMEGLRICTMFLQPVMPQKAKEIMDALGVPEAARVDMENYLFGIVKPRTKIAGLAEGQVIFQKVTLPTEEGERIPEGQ

Source: ChEMBL document CHEMBL3988442, “University of Dundee, Small-Polar-MMV Screening Library” (2021).

Mtb heat-shock: 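Assay on Mycobacterium tuberculosis, filed only as a heat shock assay from Cornell; the read-out is not stated. The concentration is filed as 10 mM, unlikely as a test dose, so the dose is not known. Higher reads as stronger inhibition (inferred: compounds with an IC50 in retests scored well above the rest). Of about 69,000 compounds tested this way, about 930 (1.4%) reached 50% or more in at least one test.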
Mtb growth Cornell: 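Whole-cell assay for inhibitors of Mycobacterium tuberculosis growth, labelled Cornell in the record; the read-out is not stated. The concentration is filed as 10 mM, unlikely as a test dose, so the dose is not known. The record gives no direction; compounds strong in two other growth screens of this library score well above the rest, so higher reads as stronger inhibition. Of about 53,000 compounds tested this way, about 900 (1.7%) reached 50% or more in at least one test.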
LdMetRS: 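Methionyl-tRNA synthetase (putative), Leishmania donovani (UniProt E9BF75). Primary screen of methionyl-tRNA synthetase; the read-out is not stated. The test concentration is not given. Values are per cent inhibition. Size under these conditions: about 68,000 compounds, about 24 of them at 50% or above in at least one test.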

Results are percentages, as filed. The controls that fix the scale are not given in the record; negative values are as filed. This is an unselected part of the compounds tested.

CC(C)(O)CN1CCN(C(=O)c2ccn(-c3cccc(F)c3)n2)CC1 read Mtb heat-shock: 5.953%; Mtb growth Cornell: 13.85%; LdMetRS: 10.86%.
CCOC[C@@H]1CCC[C@@]12CN(Cc1cccnc1)CCO2 read Mtb heat-shock: 4.088%; Mtb growth Cornell: 24.33%; LdMetRS: 16.42%.
Cc1ccc2c(c1)[C@@H](CC(=O)N(C)C)CCO2 read Mtb heat-shock: -5.737%; Mtb growth Cornell: 3.607%; LdMetRS: 11.89%.
Cc1ccccc1OCCN1CCn2c(C)nnc2C1 read Mtb heat-shock: -20.53%; Mtb growth Cornell: -10.78%; LdMetRS: 4.871%.
O=C(CCNS(=O)(=O)c1ccccc1F)NCc1ccoc1 read Mtb heat-shock: -24.26%; Mtb growth Cornell: -53.15%; LdMetRS: -2.122%.
CC(C)c1nnc(NC(=O)c2cccc(OCC(F)(F)F)n2)[nH]1 read Mtb heat-shock: -30.68%; LdMetRS: 16.54%.
O=C(O)C(F)(F)F.O=C(O)C(F)(F)F.[H][C@]12CCN(C(=O)CCC)CC[C@@]1([H])S(=O)(=O)CCN2Cc1cccnc1 read Mtb heat-shock: 4.635%; Mtb growth Cornell: 0.9631%.
CNCc1ccc([C@@H]2CN(C)C[C@H]2C(N)=O)cc1.Cl read Mtb heat-shock: -23.47%; Mtb growth Cornell: -40%.
Cc1cc(-n2cccn2)ccc1CN1C[C@@H](CN(C)C)[C@@H](CO)C1 read Mtb heat-shock: -16.2%; Mtb growth Cornell: -12.22%; LdMetRS: 17.33%.
O=C(CSc1ccc2c(c1)OCCO2)NS(=O)(=O)c1cccs1 read Mtb heat-shock: -14.7%; Mtb growth Cornell: -5.35%; LdMetRS: 10.11%.
Cc1ccc(NCc2cncc3c2CCN(C(=O)C2CC=CC2)C3)nn1 read LdMetRS: 12.97%.
CSc1nsc(SCC(=O)c2cc3c(cc2Cl)NC(=O)C3)n1 read Mtb heat-shock: 7.661%; Mtb growth Cornell: 71.22%; LdMetRS: 7.58%.
Cc1ccc(N(CC(=O)NCc2nnc3n2CCC3)S(C)(=O)=O)cc1 read Mtb heat-shock: -3.282%; Mtb growth Cornell: 18.08%; LdMetRS: 25.47%.
O=C(O)C(F)(F)F.[H][C@@]12OCCN(C(=O)C3CCOCC3)[C@@]1([H])CC[C@H]2Oc1cccnc1 read Mtb heat-shock: -21.95%; Mtb growth Cornell: 5.199%.
O=C(O)C(F)(F)F.O=C1CC(c2cccnc2)C2(CCN(S(=O)(=O)C3CC3)CC2)N1 (centres undefined) read Mtb heat-shock: -6.88%; Mtb growth Cornell: 4.632%.
Cc1ncc(CN(C)C(=O)c2ccc(N3CCOCC3)c(F)c2)s1 read Mtb heat-shock: 4.204%; Mtb growth Cornell: -24.58%; LdMetRS: 11.17%.
CC(=O)N1CC(=O)N(c2ccccc2)CC12CCN(Cc1cccs1)C2 (centres undefined) read LdMetRS: 17.15%.
CN(Cc1cc2n(n1)CCN(C(=O)[C@H]1CCCO1)C2)Cc1nccs1 read Mtb heat-shock: -16.09%; LdMetRS: -0.2611%.
NC(=O)CN1CCCC1c1cncc(Oc2ccc(Cl)cc2)n1 (centres undefined) read Mtb heat-shock: 3.219%; Mtb growth Cornell: -0.1643%; LdMetRS: 16.77%.
c1nc(CN2CCCC(Cc3ccc(NC4CCCC4)nn3)C2)c[nH]1 (centres undefined) read LdMetRS: 12.6%.
O=C(c1cocn1)N1C[C@@H]2CN(Cc3ccco3)CCO[C@@H]2C1 read LdMetRS: 7.33%.

Repeated from the top, 2 entries:

| structure | Mtb heat-shock | Mtb growth Cornell | LdMetRS |
|---|---|---|---|
| `CC(C)(O)CN1CCN(C(=O)c2ccn(-c3cccc(F)c3)n2)CC1` | 5.953% | 13.85% | 10.86% |
| `CCOC[C@@H]1CCC[C@@]12CN(Cc1cccnc1)CCO2` | 4.088% | 24.33% | 16.42% |